Results are given in words; binding and its absence hold for the method and conditions named. Some binding calls cover weakened binding; strength is not graded here.
Legend:
[1] = biological target: aggregated tau in FFPE brain sections of an AD patient (severe tau aggregation and NFT formation) (human) (UniProt P10636); test: immunohistochemistry on FFPE brain sections
[2] = biological target: aggregated tau in FFPE brain sections of a PD (Pick's disease) patient (severe tau aggregation) (human) (UniProt P10636); test: immunohistochemistry on FFPE brain sections
[3] = biological target: aggregate tau fibrils purified from AD brain homogenates (MC1-affinity purified) (human) (UniProt P10636); test: ELISA on coated purified AD tau fibrils
[4] = biological target: aggregated tau in FFPE brain sections of a normal human individual (minimal tau aggregation) (human) (UniProt P10636); test: immunohistochemistry on FFPE brain sections, semi-quantitative score (mild, +)
[5] = biological target: aggregated tau in FFPE brain sections of an AD patient (severe tau aggregation and NFT formation) (human) (UniProt P10636); test: immunohistochemistry on FFPE brain sections, semi-quantitative score (severe, +++)
[6] = biological target: aggregated tau in FFPE brain sections of a PD (Pick's disease) patient (severe tau aggregation) (human) (UniProt P10636); test: as above

By UniProt entry, the sequences of proteins in these tests, tags left out. Where a name states a change or a piece, a line headed by the entry shows the natural chain unless it says otherwise. Chains listed by the source or under a name are the forms on record and can include a tag or linker.
aggregated tau in FFPE brain sections of an AD patient (severe tau aggregation and NFT formation) (P10636, form named): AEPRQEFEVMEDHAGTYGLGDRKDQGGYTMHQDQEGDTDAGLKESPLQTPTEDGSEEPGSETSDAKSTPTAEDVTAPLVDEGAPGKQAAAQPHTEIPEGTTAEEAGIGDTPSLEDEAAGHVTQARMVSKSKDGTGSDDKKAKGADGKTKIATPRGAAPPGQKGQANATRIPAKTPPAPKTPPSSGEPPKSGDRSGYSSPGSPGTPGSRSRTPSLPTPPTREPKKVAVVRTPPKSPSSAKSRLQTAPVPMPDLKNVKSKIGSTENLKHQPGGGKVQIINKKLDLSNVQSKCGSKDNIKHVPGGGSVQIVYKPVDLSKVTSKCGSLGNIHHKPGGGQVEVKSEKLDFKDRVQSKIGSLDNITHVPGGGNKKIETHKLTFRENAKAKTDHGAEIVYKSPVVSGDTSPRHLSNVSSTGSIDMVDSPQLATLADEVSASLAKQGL
aggregated tau in FFPE brain sections of a PD (Pick's disease) patient (severe tau aggregation) (P10636, form named): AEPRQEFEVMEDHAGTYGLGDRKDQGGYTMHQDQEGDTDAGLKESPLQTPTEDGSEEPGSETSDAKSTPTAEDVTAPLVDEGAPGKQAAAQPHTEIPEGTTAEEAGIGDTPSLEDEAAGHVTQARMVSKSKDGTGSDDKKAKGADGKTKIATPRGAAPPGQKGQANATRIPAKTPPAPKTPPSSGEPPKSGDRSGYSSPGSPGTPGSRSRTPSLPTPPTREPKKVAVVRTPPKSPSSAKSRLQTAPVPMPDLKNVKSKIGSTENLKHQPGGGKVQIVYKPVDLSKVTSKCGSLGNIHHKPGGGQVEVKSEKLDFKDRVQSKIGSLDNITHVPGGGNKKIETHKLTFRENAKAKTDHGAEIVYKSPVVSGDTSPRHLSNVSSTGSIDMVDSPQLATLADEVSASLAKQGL

binding [1]: binds
binding [2]: binds
binding [3]: binds
binding [4]: binds
binding [5]: binds
binding [6]: binds
B1: Exemplified anti-Tau antibody (having both HCs of SEQ ID NO.2 and both LCs of SEQ ID NO.1) (antibody, human IgG4 S228P, kappa, F234A L235A, V domains shown)
VH: EVQLVQSGAEVKKPGESLKISCKGSGYTFSNYWIEWVRQMPGKGLEWMGEILPGSDSIKYEKNFKGQVTISADKSISTAYLQWSSLKASDTAMYYCARRGNYVDDWGQGTLVTVSS
VL: EIVLTQSPGTLSLSPGERATLSCRSSQSLVHSNQNTYLHWYQQKPGQAPRLLIYKVDNRFSGIPDRFSGSGSGTDFTLTISRLEPEDFAVYYCSQSTLVPLTFGGGTKVEIKR

From US20210121565A1
